Test results as given in the supplement of paper PMC7877785.
± gives the uncertainty stated by the source. Many entries were measured with a wide error.

Experiment: self-splicing fitness, log relative to wild type (ln ratio); higher = more splicing; Tetrahymena group I intron in knt gene, E. coli kanamycin selection, DiMSum; sequences stand for … in CUCUCU…GGAGGGAAAAGUUAUCAGGCAUGCACCUGGUAGCUAGUCUUUAAACCAAUAGAUUGCAUCGGUUUAAAAGGCAAGACCGUCAAAUUGCGGGAAAGGGGUCAACAGCCGUUCAGUACCAAGUCUCAGGGGAAACUUUGAGAUGGCCUUGCAAAGGGUAUGGUAAUAAGCUGACGGACAUGGUCCUAACCACGCAGCCAAGUCCUAAGUCAACAGAUCUUCUGUUGAUAUGGAUGCAGUUCACAGACUAAAUGUCGGUCGGGGAAGAUGUAUUCUUCUCAUAAGAUAUAGUCGGACCUCUCCUUAAUGGGAGCUAGCGGAUGAAGUGAUGCAACACUGGAGCCGCUGGGAACUAAUUUGUAUGCGAAAGUAUAUUGAUUAGUUUUGGAGUACUCGUGGUCG
Summary of the method: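 Library with all eight P1ex-region intron nucleotides randomised, intron inside the knt kanamycin-resistance gene on pET-22b(+), in E. coli BL21(DE3). Cells grew overnight at 37°C or 30°C on LB agar with or without 25 μg/mL kanamycin (plus 100 μg/mL carbenicillin, 50 μM IPTG, 0.2% rhamnose), in six replicate transformations. Pooled colonies were amplicon-sequenced on Illumina HiSeq 2500. DiMSum fitness is the error-weighted combination of wild-type-normalised replicate fold changes, kanamycin versus none.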

Row | Sequence | self-splicing fitness (ln) (30 °C) | self-splicing fitness (ln) (37 °C)
1 | CCGUAGCAAUAUUACGCAAA | -3.13 ± 0.74 | -2.24 ± 0.25
2 | CUCUAGCAAUAUUACGGUUG | -1.83 ± 0.12 | -0.869 ± 0.14
3 | GUCGAGCAAUAUUACGCCGG | -4.11 ± 0.52 | 
4 | UCGGAGCAAUAUUACGUAUG | -2.21 ± 1.1 | 1.95 ± 0.73
5 | UCAAAGCAAUAUUACGACGU | -0.985 ± 0.063 | 0.289 ± 0.069
6 | AUGAAGCAAUAUUACGAGUC | -4.33 ± 0.51 | 
7 | AGAGAGCAAUAUUACGAGCC | -2.04 ± 0.57 | 
8 | CGUGAGCAAUAUUACGUCGC |  | -2.27 ± 0.65
9 | CAGGAGCAAUAUUACGUUGC | -2.74 ± 0.54 | 
10 | UCCGAGCAAUAUUACGAUGC |  | -3.33 ± 0.73
11 | UUGGAGCAAUAUUACGCAUA | -0.86 ± 1 | -0.86 ± 0.56
12 | CUAUAGCAAUAUUACGUCCC | -2.49 ± 0.73 | -1.78 ± 1.2
13 | GGCCAGCAAUAUUACGUCCC |  | -2.39 ± 1.1
14 | CGGGAGCAAUAUUACGUAUC |  | -1.74 ± 0.53
15 | UCAGAGCAAUAUUACGCUCA | -3.63 ± 1 | -1.2 ± 0.51
16 | AAUUAGCAAUAUUACGAAGC |  | -2.47 ± 0.54
17 | UCCGAGCAAUAUUACGGGCC | -3.8 ± 0.3 | -2.94 ± 0.35
18 | AUCGAGCAAUAUUACGCAUA | -1.23 ± 0.53 | 
19 | AUAAAGCAAUAUUACGGGAC | -1.72 ± 0.1 | -2.4 ± 0.16
20 | AGACAGCAAUAUUACGAAAA | -3.23 ± 0.52 | 

Part of the list above, reformatted.

| Row | Sequence | self-splicing fitness (ln) (30 °C) | self-splicing fitness (ln) (37 °C) |
| --- | --- | --- | --- |
| 4 | UCGGAGCAAUAUUACGUAUG | -2.21 ± 1.1 | 1.95 ± 0.73 |
| 5 | UCAAAGCAAUAUUACGACGU | -0.985 ± 0.063 | 0.289 ± 0.069 |
| 6 | AUGAAGCAAUAUUACGAGUC | -4.33 ± 0.51 |  |
| 7 | AGAGAGCAAUAUUACGAGCC | -2.04 ± 0.57 |  |
| 8 | CGUGAGCAAUAUUACGUCGC |  | -2.27 ± 0.65 |
| 9 | CAGGAGCAAUAUUACGUUGC | -2.74 ± 0.54 |  |
| 10 | UCCGAGCAAUAUUACGAUGC |  | -3.33 ± 0.73 |
| 11 | UUGGAGCAAUAUUACGCAUA | -0.86 ± 1 | -0.86 ± 0.56 |
| 12 | CUAUAGCAAUAUUACGUCCC | -2.49 ± 0.73 | -1.78 ± 1.2 |
| 13 | GGCCAGCAAUAUUACGUCCC |  | -2.39 ± 1.1 |
| 14 | CGGGAGCAAUAUUACGUAUC |  | -1.74 ± 0.53 |
| 15 | UCAGAGCAAUAUUACGCUCA | -3.63 ± 1 | -1.2 ± 0.51 |
| 16 | AAUUAGCAAUAUUACGAAGC |  | -2.47 ± 0.54 |
| 17 | UCCGAGCAAUAUUACGGGCC | -3.8 ± 0.3 | -2.94 ± 0.35 |
| 18 | AUCGAGCAAUAUUACGCAUA | -1.23 ± 0.53 |  |
| 19 | AUAAAGCAAUAUUACGGGAC | -1.72 ± 0.1 | -2.4 ± 0.16 |
| 20 | AGACAGCAAUAUUACGAAAA | -3.23 ± 0.52 |  |

Going on with the list:

Row | Sequence | self-splicing fitness (ln) (30 °C) | self-splicing fitness (ln) (37 °C)
21 | GGAGAGCAAUAUUACGAAAG |  | -2.94 ± 0.74
22 | UGUGAGCAAUAUUACGUUGC | -3.72 ± 1 | 
23 | AAGAAGCAAUAUUACGGCUU | -2.42 ± 0.14 | -3.23 ± 0.24
24 | UUAGAGCAAUAUUACGCUCC | -3.97 ± 0.52 | -3.13 ± 0.6
25 | UACGAGCAAUAUUACGAGCU |  | -1.74 ± 0.66
26 | AGUUAGCAAUAUUACGCUUG | -4.14 ± 0.51 | -1.83 ± 0.23
27 | GAGUAGCAAUAUUACGCCCC | 0.741 ± 1.1 | 
28 | GUCAAGCAAUAUUACGGACC |  | -3 ± 1.1
29 | UAACAGCAAUAUUACGUACC | -0.513 ± 0.19 | -1.7 ± 0.24
30 | AUUUAGCAAUAUUACGGAGA | -1.52 ± 1.2 | -0.831 ± 0.61
31 | CUGGAGCAAUAUUACGGAAU | -4.19 ± 0.73 | -2.05 ± 0.36
32 | UUAUAGCAAUAUUACGAGAA | -2.3 ± 0.8 | 
33 | UUGCAGCAAUAUUACGUUCC | -3.85 ± 0.53 | 
34 | GAACAGCAAUAUUACGAAUC | -1.76 ± 0.08 | -1.9 ± 0.13
35 | CCGAAGCAAUAUUACGCAGU |  | -1.69 ± 0.67
36 | CGGGAGCAAUAUUACGAACU | -3.58 ± 0.76 | 
37 | UUUUAGCAAUAUUACGGCAU | -2.8 ± 0.41 | -0.972 ± 0.29
38 | GUUAAGCAAUAUUACGCUAU | -3.81 ± 0.73 | 
39 | GUUGAGCAAUAUUACGAGGC |  | -1.12 ± 0.6
40 | CUAGAGCAAUAUUACGGUCG | 0.342 ± 0.11 | -0.264 ± 0.13

Row | Sequence | self-splicing fitness (ln) (30 °C) | self-splicing fitness (ln) (37 °C)
41 | UUCAAGCAAUAUUACGGAAU | -5.35 ± 0.51 | 
42 | CACCAGCAAUAUUACGAGAC | -4.55 ± 0.59 | 
43 | UUCUAGCAAUAUUACGUUCC | -3.49 ± 0.61 | -2.8 ± 0.54
44 | CUAUAGCAAUAUUACGCACU | -4.41 ± 1 | -3.01 ± 1
45 | UGUAAGCAAUAUUACGAGAA | -2.62 ± 1.1 | 
46 | CGAGAGCAAUAUUACGAAUC |  | -3.57 ± 1
47 | UUGUAGCAAUAUUACGAUAA | -1.44 ± 0.11 | -0.33 ± 0.17
48 | UCGUAGCAAUAUUACGGAUG | -2.36 ± 0.78 | 
49 | UUUAAGCAAUAUUACGGAAC |  | -1.78 ± 0.56
50 | CGGUAGCAAUAUUACGGUAC | -3.22 ± 0.54 | 
51 | GGAAAGCAAUAUUACGAGGC | -4.21 ± 1 | -1.94 ± 0.79
52 | AGCUAGCAAUAUUACGCCCG | -2.95 ± 1.1 | 
53 | CUCUAGCAAUAUUACGUCAC |  | -4.1 ± 0.59
54 | UUGGAGCAAUAUUACGUCGC | 0.0483 ± 0.84 | 
55 | CGAGAGCAAUAUUACGCUAA |  | -1.01 ± 0.59
56 | GUUGAGCAAUAUUACGAGUA | -3.39 ± 1 | 
57 | AGAGAGCAAUAUUACGUAGG | -3.88 ± 0.76 | 
58 | GUUUAGCAAUAUUACGGAGC | -3.7 ± 0.53 | 
59 | UCUUAGCAAUAUUACGAAAA | -2.91 ± 0.57 | 
60 | UUUGAGCAAUAUUACGUUGA | -3.91 ± 0.62 | 
